Our source for the binding values is patent US20110059051A1.

The chains behind the UniProt entries cited, without tags or fusion partners. Where a name states a change or a piece, a line headed by the entry shows the natural chain unless it says otherwise.
UniProt A2A935: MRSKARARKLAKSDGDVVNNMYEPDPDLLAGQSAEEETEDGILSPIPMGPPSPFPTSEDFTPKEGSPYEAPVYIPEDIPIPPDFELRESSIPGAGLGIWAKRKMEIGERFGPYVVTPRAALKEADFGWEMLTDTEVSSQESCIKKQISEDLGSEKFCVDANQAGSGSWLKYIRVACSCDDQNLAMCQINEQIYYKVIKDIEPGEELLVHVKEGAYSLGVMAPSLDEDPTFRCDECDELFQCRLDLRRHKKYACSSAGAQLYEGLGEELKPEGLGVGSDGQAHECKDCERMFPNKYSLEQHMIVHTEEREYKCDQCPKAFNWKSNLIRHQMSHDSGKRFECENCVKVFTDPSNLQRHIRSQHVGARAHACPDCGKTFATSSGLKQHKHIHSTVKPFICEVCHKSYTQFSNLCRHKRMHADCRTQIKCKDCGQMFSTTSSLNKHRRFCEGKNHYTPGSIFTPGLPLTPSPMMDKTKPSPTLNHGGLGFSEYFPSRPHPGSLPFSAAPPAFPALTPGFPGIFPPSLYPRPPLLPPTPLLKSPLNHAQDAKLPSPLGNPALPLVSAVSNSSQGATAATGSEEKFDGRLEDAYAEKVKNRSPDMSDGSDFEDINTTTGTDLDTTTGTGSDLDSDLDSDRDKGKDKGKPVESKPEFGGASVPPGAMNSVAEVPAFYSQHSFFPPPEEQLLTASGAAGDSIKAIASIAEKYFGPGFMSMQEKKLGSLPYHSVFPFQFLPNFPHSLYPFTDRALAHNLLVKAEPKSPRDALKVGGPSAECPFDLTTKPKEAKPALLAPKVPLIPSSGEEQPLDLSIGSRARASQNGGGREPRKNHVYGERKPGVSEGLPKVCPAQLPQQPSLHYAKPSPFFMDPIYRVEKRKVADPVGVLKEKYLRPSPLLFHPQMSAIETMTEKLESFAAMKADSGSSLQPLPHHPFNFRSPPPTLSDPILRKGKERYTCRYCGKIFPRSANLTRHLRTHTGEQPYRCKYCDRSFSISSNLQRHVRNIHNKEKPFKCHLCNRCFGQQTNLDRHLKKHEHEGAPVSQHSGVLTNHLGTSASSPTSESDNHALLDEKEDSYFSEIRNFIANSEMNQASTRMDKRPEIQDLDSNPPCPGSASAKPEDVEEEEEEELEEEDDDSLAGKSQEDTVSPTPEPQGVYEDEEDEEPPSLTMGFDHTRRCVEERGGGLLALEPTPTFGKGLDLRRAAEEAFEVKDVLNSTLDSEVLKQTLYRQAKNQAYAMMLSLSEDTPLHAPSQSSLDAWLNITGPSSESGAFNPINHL

These are yes or no findings as the source states them, for the method shown. Binding seen in cells or lysates may run through a third protein. Some binding calls cover weakened binding; strength is not graded here. For some assays here: Tags and fused reporters may be left off the sequences shown.

One assay has as its target T1, HA-PGC-1α (UniProt O70343).
T1 sequence (looked up): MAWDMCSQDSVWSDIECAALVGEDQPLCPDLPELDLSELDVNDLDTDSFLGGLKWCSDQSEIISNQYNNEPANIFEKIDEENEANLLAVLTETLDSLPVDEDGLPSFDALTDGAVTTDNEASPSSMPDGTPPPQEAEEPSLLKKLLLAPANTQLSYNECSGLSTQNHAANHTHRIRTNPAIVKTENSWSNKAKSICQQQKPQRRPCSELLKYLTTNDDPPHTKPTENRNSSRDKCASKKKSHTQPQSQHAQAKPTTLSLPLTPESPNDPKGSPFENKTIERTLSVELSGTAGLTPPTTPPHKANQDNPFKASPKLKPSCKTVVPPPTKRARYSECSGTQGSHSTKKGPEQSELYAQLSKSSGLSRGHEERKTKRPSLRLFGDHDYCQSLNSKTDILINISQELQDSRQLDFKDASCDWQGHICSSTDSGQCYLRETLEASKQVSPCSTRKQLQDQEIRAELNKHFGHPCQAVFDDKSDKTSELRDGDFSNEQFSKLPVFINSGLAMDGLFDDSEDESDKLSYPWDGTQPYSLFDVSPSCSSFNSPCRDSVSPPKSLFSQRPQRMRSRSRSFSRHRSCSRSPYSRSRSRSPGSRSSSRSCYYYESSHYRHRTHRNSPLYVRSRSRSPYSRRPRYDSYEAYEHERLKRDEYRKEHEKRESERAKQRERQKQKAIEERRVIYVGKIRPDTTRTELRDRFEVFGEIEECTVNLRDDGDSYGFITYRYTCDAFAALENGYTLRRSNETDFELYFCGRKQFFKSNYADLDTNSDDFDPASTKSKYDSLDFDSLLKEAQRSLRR
As to the kind of experiment: co-immunoprecipitation from cos7 cells.

The target of assay [1] is T2, endogenous PGC-1α protein in brown adipocytes (mouse) (UniProt O70343).
T2 sequence (looked up): T1 sequence (looked up)
As to the kind of experiment: co-immunoprecipitation from brown adipocytes (flag-M2 agarose IP, anti-PGC-1α blot).

Assay [2] has as its target T2, endogenous PGC-1α protein in brown adipocytes (mouse). As to the kind of experiment: co-immunoprecipitation of Flag-PRDM16 from brown fat preadipocytes, Western blot for PGC-1α. On the technique in general: Immunoblotting shows a protein as a band on a membrane.
In assay [3] the target is T3, GST-PGC-1α region 250-400 (UniProt O70343).
T3 sequence (looked up): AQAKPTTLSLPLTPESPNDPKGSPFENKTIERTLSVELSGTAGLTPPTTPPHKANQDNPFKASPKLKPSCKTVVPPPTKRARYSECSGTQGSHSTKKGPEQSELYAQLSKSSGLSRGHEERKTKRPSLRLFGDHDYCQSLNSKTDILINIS
In words: GST pull-down with GST-PGC-1α fragments, 35S-labeled PRDM16.

Assay [4] addresses T4, GST-PGC-1α region 590-797 (UniProt O70343).
T4 sequence (looked up): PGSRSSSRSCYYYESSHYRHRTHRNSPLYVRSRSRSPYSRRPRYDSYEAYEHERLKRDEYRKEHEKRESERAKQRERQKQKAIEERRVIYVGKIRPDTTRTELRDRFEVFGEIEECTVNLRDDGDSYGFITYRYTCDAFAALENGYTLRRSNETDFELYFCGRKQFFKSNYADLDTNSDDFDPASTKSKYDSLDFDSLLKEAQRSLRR
The description is as above.

In the case of “Flag-PRDM16 (full-length mouse PRDM16 with N-terminal FLAG tag) (from UniProt A2A935 1-1275)”, the binding entry (in the assay with HA-PGC-1α; in assay [1]; in assay [2]) was “binds” in each case.
“35S-labeled in vitro translated PRDM16 protein (from UniProt A2A935 1-1275)”: the binding entry in assay [3] and in assay [4] was “binds” throughout.
